Measured values taken from the supplement of paper PMC10849652.
This is one part of the list.

Chains of the proteins cited; added tags and fusions are not shown. Lines headed by an entry give the natural chain unless they say otherwise; changes in a name come on top.
UniProt Q7RTP0: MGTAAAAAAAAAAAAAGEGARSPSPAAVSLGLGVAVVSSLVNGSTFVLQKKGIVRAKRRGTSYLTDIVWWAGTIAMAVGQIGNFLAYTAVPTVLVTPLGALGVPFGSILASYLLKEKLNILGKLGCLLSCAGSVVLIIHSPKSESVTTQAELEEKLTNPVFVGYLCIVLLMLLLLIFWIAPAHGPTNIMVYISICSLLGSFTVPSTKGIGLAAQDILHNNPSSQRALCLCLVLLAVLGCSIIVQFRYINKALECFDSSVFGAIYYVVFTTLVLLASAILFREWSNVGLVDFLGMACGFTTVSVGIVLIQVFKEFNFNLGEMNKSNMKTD
UniProt P25208: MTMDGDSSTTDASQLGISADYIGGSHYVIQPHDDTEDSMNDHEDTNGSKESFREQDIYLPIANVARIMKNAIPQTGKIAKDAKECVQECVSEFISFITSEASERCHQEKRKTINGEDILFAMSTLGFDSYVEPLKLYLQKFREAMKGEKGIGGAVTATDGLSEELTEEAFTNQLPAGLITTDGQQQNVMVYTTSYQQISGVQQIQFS
UniProt Q9BZQ8: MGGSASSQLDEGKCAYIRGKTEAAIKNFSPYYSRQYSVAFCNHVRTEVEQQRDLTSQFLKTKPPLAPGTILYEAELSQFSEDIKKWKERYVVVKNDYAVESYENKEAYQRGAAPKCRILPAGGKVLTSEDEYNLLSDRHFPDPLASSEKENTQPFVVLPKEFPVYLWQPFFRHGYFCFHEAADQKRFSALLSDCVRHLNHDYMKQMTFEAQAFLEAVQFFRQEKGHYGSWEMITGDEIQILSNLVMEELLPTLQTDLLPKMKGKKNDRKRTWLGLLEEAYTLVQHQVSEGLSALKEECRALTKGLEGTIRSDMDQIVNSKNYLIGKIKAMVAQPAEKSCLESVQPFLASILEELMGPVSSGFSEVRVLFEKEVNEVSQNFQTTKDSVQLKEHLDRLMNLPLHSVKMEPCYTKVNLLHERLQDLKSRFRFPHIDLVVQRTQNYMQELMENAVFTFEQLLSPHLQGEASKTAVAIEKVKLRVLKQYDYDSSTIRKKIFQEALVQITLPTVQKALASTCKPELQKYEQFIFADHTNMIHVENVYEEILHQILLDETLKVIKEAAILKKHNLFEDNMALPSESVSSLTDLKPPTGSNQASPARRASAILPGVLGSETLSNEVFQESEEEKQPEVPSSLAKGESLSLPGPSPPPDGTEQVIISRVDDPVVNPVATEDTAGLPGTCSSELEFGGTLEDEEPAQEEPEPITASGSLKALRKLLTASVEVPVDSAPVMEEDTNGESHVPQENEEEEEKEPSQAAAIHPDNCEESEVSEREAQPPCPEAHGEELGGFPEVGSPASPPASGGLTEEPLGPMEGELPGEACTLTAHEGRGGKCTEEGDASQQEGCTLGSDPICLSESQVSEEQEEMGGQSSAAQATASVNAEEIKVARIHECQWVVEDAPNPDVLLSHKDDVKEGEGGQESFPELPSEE
UniProt P15559, whole entry, looked up: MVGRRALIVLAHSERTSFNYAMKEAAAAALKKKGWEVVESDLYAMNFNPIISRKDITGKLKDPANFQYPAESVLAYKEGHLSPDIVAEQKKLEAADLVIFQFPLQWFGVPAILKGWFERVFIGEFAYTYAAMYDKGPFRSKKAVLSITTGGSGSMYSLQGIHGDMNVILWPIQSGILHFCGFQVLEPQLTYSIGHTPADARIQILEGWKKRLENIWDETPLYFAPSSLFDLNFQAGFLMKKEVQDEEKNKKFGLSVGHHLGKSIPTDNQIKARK
UniProt Q9BS92: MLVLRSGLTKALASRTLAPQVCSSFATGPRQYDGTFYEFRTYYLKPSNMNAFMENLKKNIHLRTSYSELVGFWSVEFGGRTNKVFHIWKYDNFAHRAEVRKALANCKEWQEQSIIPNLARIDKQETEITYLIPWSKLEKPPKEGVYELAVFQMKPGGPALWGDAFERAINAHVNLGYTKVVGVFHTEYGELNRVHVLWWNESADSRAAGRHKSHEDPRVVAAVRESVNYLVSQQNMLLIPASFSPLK
UniProt P61916: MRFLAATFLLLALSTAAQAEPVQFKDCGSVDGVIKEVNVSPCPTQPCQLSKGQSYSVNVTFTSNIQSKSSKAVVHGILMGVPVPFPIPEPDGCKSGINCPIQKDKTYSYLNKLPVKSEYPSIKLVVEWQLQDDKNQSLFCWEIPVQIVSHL
UniProt P30419: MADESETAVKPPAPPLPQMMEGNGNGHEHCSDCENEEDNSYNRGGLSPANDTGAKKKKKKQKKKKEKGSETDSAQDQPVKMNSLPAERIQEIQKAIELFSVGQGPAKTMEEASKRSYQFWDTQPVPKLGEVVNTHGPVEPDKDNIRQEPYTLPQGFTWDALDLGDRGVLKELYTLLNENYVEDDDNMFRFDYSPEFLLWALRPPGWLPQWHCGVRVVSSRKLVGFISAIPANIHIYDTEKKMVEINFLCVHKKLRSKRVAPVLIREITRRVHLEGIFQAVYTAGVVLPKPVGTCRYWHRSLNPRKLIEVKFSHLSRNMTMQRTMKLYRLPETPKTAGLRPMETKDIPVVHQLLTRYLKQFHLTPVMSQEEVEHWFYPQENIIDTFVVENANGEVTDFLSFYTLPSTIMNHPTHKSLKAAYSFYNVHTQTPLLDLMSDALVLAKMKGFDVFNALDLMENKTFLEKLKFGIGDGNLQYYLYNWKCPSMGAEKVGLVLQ
UniProt O75607: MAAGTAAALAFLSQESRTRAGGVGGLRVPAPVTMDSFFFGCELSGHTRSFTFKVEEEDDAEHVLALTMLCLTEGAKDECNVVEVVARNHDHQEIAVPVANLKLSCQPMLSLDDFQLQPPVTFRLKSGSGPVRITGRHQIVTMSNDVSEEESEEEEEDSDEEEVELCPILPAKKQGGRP
UniProt Q15738: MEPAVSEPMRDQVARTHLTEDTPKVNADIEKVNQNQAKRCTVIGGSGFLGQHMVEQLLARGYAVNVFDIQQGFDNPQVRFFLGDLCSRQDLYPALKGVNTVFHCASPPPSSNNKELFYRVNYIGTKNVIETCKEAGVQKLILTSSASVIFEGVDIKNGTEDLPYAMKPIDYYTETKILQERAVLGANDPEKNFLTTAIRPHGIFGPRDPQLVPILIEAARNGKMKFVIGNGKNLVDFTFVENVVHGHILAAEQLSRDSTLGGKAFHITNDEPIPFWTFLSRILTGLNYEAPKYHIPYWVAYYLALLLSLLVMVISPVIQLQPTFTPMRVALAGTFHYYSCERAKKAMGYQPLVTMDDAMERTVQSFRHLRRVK
UniProt Q96L73: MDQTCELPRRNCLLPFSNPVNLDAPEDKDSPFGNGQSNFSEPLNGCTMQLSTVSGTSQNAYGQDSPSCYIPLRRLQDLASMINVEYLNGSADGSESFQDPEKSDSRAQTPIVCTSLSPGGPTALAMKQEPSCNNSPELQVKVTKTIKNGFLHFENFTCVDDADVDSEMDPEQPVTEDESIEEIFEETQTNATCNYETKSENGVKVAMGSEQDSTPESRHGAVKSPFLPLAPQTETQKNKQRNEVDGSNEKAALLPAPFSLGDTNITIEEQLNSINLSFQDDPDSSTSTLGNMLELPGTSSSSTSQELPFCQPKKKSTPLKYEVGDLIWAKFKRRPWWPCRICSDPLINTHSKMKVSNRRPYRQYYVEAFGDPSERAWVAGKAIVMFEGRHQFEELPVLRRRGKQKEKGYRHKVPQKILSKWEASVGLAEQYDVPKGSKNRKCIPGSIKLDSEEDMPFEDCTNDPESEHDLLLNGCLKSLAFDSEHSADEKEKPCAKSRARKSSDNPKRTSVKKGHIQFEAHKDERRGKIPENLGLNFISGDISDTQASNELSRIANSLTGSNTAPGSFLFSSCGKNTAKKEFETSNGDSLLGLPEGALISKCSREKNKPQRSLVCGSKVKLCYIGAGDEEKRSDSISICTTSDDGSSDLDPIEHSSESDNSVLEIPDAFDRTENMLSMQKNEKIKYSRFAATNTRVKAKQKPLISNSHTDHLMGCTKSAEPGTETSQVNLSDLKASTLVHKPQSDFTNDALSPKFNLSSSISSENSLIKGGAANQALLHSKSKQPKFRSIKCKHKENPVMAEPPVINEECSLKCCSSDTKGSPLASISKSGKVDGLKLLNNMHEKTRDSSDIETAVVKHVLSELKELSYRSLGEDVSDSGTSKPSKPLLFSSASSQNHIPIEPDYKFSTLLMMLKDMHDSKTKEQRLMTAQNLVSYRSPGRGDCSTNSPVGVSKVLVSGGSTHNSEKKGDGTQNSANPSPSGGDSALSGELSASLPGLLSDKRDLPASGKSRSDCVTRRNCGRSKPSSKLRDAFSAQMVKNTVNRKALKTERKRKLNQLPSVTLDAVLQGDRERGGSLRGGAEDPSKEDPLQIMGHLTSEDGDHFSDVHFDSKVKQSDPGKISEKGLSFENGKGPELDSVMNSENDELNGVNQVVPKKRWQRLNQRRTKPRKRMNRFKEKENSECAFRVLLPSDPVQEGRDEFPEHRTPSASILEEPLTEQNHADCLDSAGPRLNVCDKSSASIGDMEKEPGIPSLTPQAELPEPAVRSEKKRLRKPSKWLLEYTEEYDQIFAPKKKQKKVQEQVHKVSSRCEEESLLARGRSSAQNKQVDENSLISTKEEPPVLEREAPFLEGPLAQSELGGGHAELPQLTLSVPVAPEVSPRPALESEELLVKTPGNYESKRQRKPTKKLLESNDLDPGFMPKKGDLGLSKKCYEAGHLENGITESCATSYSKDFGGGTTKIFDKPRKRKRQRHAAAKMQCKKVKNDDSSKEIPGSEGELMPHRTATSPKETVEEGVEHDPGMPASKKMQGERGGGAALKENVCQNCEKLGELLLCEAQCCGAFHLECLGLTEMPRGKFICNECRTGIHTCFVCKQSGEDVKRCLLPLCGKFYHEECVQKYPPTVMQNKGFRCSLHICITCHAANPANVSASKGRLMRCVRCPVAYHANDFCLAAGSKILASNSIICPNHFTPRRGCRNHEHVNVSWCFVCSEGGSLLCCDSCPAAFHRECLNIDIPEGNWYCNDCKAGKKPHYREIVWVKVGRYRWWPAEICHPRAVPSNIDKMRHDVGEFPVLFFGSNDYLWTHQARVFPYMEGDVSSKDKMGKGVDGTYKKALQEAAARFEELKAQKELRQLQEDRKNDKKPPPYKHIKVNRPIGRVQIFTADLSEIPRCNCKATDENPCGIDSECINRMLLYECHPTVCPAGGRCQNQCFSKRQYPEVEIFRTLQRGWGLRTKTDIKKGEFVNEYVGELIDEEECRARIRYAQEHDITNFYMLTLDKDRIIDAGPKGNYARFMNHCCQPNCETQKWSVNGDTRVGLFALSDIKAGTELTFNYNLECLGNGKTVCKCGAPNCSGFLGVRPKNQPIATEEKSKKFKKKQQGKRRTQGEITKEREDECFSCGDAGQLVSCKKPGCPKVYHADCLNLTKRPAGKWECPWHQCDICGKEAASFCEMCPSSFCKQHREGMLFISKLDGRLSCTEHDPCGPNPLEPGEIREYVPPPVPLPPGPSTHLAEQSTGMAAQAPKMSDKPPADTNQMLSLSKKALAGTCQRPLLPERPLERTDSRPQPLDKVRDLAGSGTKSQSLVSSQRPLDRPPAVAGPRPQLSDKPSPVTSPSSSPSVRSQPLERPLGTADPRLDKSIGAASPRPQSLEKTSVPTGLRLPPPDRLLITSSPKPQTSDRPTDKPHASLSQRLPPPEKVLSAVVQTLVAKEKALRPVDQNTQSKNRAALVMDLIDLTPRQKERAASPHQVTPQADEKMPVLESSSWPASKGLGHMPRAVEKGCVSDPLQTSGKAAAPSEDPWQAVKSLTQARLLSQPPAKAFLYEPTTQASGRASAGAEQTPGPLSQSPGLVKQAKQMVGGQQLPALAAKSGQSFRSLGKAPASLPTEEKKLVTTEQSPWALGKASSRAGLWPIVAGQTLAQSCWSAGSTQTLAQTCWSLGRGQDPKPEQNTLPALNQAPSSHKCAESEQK
UniProt Q9UGY1: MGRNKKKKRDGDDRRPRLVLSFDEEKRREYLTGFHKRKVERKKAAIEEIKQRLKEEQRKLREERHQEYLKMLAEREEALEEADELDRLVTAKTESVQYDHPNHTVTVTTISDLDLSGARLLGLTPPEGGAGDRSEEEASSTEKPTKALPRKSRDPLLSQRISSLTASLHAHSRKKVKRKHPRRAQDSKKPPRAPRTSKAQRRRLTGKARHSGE
UniProt P08651, whole entry, looked up: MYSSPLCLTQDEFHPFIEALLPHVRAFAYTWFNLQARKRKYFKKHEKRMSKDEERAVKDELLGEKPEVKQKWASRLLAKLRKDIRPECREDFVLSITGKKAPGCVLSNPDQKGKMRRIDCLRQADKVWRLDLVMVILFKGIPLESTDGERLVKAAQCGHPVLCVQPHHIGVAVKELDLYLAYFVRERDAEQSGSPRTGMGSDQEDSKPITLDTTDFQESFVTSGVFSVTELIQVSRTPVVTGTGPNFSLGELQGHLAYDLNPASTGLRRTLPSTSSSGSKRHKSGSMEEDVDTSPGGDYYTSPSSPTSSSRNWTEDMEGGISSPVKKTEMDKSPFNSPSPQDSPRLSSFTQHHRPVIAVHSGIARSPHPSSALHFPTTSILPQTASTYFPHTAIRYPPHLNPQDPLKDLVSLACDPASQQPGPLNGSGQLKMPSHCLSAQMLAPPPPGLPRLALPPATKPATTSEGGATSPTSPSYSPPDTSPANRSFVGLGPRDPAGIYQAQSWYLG

Tests used:
Assay in all cases: log2 fold change, soluble protein after heating vs DMSO (PISA); higher = thermal stabilisation; K562 cells, 10 uM, 30 min; active = over 0.2 and 3.5 SD of the protein, either way, in both replicates (recomputed)
[1] = compound: NC(=O)Nc1cc(-c2cccc(F)c2)sc1C(=O)N[C@H]1CCCNC1
Procedure, shortened: (§1)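 K562 cells at 2×10^6 cells/mL were exposed to 10 μM compound for 30 min, then aliquots were heated for 3 min across 48°C-58°C, pooled, and extracted in PBS containing 0.5% NP-40 at 4°C. The supernatant after 21,000xg for 90 min was taken as soluble protein and measured by TMTpro 16plex LC-MS/MS with channel sums equalised. Thermal stability is reported relative to control samples, with values from duplicates. Fold changes are given on a log2 scale.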

[2] = compound: NC(=O)c1cnc(N[C@@H]2CCCC[C@@H]2N)nc1Nc1cccc(-n2nccn2)c1
Procedure, shortened: as §1

[3] = compound: NC1(c2ccc(-c3nc4ccn5c(=O)[nH]nc5c4cc3-c3ccccc3)cc2)CCC1
Procedure, shortened: as §1

[4] = compound: NCC(=O)Nc1ccc(-n2nc(C(F)(F)F)cc2-c2ccc3c(ccc4ccccc43)c2)cc1
Procedure, shortened: as §1

[5] = compound: Nc1ccccc1NC(=O)c1ccc(CNC(=O)OCc2cccnc2)cc1 [entinostat]
Procedure, shortened: as §1

[6] = compound: O=C(CCCCCCC(=O)Nc1ccccc1)NO [vorinostat]
Procedure, shortened: as §1

[7] = compound: O=C(CCCCCCNC(=O)c1cnc(N(c2ccccc2)c2ccccc2Cl)nc1)NO [citarinostat]
Procedure, shortened: as §1

[8] = compound: O=C(O)c1ccc2c(c1)nc(Nc1cccc(Cl)c1)c1ccncc12 [silmitasertib]
Procedure, shortened: as §1

[9] = compound: O=C1NC(=O)C(c2cnc3ccccn23)=C1c1cn2c3c(cc(F)cc13)CN(C(=O)N1CCCCC1)CC2
Procedure, shortened: as §1

[10] = compound: c1cc(OCCN2CCCCC2)cc(-c2n[nH]c3ccc(-c4nnc[nH]4)cc23)c1
Procedure, shortened: as §1

Measured: log2 fold change

NPEPPS (UniProt P55786)
inactive: [1] -0.02 | [2] -0.035 | [3] -0.046 | [4] -0.041 | [5] -0.007 | [6] 0.076 | [7] 0.048 | [8] -0.038 | [9] -0.003 | [10] -0.03

NNT (UniProt Q13423)
inactive: [1] -0.007 | [2] -0.037 | [3] -0.062 | [4] -0.029 | [5] 0.006 | [6] 0.025 | [7] 0.018 | [8] -0.027 | [9] -0.041 | [10] 0.024

NFE2 (UniProt Q16621)
inactive: [1] 0.035 | [2] -0.049 | [3] -0.091 | [4] -0.062 | [5] -0.024 | [6] 0.055 | [7] 0.04 | [8] 0.145 | [9] -0.037 | [10] 0.006

NSL1 (UniProt Q96IY1)
inactive: [1] 0.034 | [2] -0.017 | [3] -0.057 | [4] -0.042 | [5] 0.125 | [6] 0.071 | [7] -0.113 | [8] -0.038 | [10] 0.035

NIPA1 (UniProt Q7RTP0)
inactive: [1] -0.014 | [2] -0.011 | [3] -0.083 | [4] 0.012 | [5] 0.076 | [7] -0.101 | [8] 0.028 | [10] -0.056

NOP53 (UniProt Q9NZM5)
inactive: [1] 0.054 | [2] 0.201 | [3] 0.353 | [4] 0.258 | [5] -0.141 | [6] -0.051 | [7] -0.063 | [8] 0.256 | [9] 0.285 | [10] -0.152

NFYB (UniProt P25208)
inactive: [1] -0.022 | [2] 0.102 | [3] -0.074 | [4] 0.069 | [5] -0.001 | [6] -0.038 | [7] -0.006 | [8] 0.043 | [10] 0.033

NME3 (UniProt Q13232)
inactive: [1] -0.003 | [2] -0.051 | [3] -0.048 | [4] 0.037 | [5] -0.064 | [6] -0.006 | [7] 0.003 | [8] 0.008 | [9] -0.009 | [10] 0.028

NRDC isoform 2 (UniProt O43847)
inactive: [1] -0.01 | [2] -0.044 | [3] -0.057 | [4] -0.036 | [5] 0.043 | [6] 0.04 | [7] 0.024 | [8] 0.025 | [9] -0.05 | [10] -0.06

NEK9 (UniProt Q8TD19)
inactive: [1] -0.024 | [2] -0.041 | [3] -0.096 | [4] -0.02 | [5] 0.006 | [6] 0.057 | [7] -0.001 | [8] -0.003 | [9] -0.01 | [10] -0.011

NRM (UniProt Q8IXM6)
inactive: [1] 0.004 | [2] -0.034 | [3] -0.07 | [4] 0.152 | [5] -0.049 | [6] 0.12 | [7] 0.058 | [8] 0.026 | [9] 0.095 | [10] -0.073

NFU1 (UniProt Q9UMS0)
inactive: [1] 0.008 | [2] -0.013 | [3] -0.035 | [4] -0.041 | [5] 0.064 | [6] 0 | [7] 0.047 | [8] -0.026 | [9] -0.116 | [10] 0.037

NIBAN1 (UniProt Q9BZQ8)
inactive: [1] -0.118 | [2] -0.036 | [3] -0.169 | [4] -0.036 | [5] 0.073 | [6] 0.106 | [7] 0.123 | [8] 0.029 | [9] -0.069 | [10] -0.106

NMNAT1 (UniProt Q9HAN9)
inactive: [1] 0.171 | [2] 0.145 | [3] 0.197 | [4] 0.081 | [5] 0.002 | [6] -0.077 | [7] -0.033 | [8] 0.201 | [9] 0.259 | [10] -0.174

NLRP2 (UniProt Q9NX02)
inactive: [1] -0.094 | [2] -0.131 | [3] -0.134 | [4] -0.061 | [5] -0.01 | [6] 0.066 | [7] 0.056 | [8] 0.205 | [9] 0.05 | [10] -0.041

NQO1 (UniProt P15559)
inactive: [1] -0.032 | [2] 0.039 | [3] -0.018 | [4] -0.034 | [5] -0.013 | [6] -0.024 | [7] 0.009 | [8] -0.058 | [9] -0.149 | [10] 0.068

NOMO2 (UniProt Q5JPE7)
inactive: [1] 0.034 | [2] -0.03 | [3] -0.061 | [4] 0.006 | [5] 0.021 | [6] 0.048 | [7] 0.047 | [8] 0.01 | [9] 0.017 | [10] -0.056

NIPSNAP3B (UniProt Q9BS92)
inactive: [1] 0.279 | [2] 0.011 | [3] -0.069 | [4] 0.053 | [5] -0.001 | [6] -0.064 | [7] 0.137 | [8] -0.022 | [10] -0.09

NPC2 (UniProt P61916)
inactive: [1] 0.048 | [2] 0.016 | [3] -0.034 | [4] -0.008 | [5] -0.011 | [6] 0.011 | [7] 0.142 | [8] -0.008 | [9] -0.025 | [10] 0.027

NMT1 (UniProt P30419)
inactive: [1] -0.006 | [2] -0.043 | [3] -0.052 | [4] -0.129 | [5] 0.008 | [6] 0.031 | [7] -0.012 | [8] -0.015 | [9] 0.022
active: [10] -0.52

NPM3 (UniProt O75607)
inactive: [1] 0.029 | [2] 0.02 | [3] 0.216 | [4] 0.017 | [5] -0.019 | [6] -0.023 | [7] -0.059 | [8] 0.137 | [10] -0.101

NOP14 (UniProt P78316)
inactive: [1] 0.088 | [2] -0.024 | [3] 0.181 | [4] 0.014 | [5] -0.073 | [6] 0.084 | [8] 0.088 | [9] 0.067

NSDHL (UniProt Q15738)
inactive: [1] -0.14 | [2] -0.061 | [3] 0.11 | [4] -0.033 | [5] -0.018 | [6] -0.04 | [7] 0.023 | [8] -0.023 | [9] -0.027 | [10] 0.02

NOL6 (UniProt Q9H6R4)
inactive: [1] 0.117 | [2] 0.076 | [3] 0.325 | [4] 0.015 | [5] 0.068 | [6] 0.088 | [8] 0.303 | [9] 0.099

NSD1 (UniProt Q96L73)
inactive: [1] -0.038 | [2] 0.132 | [3] -0.012 | [5] -0.032 | [6] -0.087 | [7] 0.078 | [8] 0.061 | [10] -0.037

NFS1 (UniProt Q9Y697)
inactive: [1] 0.033 | [2] -0.054 | [3] -0.029 | [4] -0.014 | [5] -0.024 | [6] 0.031 | [7] 0.026 | [8] -0.041 | [9] -0.012 | [10] -0.004

NHLRC2 (UniProt Q8NBF2)
inactive: [1] -0.077 | [2] -0.02 | [3] -0.171 | [4] -0.065 | [5] 0.009 | [6] 0.02 | [7] -0.007 | [8] 0.009 | [9] -0.063 | [10] -0.015

NOL12 (UniProt Q9UGY1)
inactive: [1] 0.151 | [2] 0.159 | [3] 0.281 | [4] 0.197 | [5] -0.017 | [6] -0.104 | [8] 0.228 | [9] 0.375

Taken from the results shown (seven entries):
NOP14 (UniProt P78316)
inactive: [1] 0.088 | [2] -0.024 | [3] 0.181 | [4] 0.014 | [5] -0.073 | [6] 0.084 | [8] 0.088 | [9] 0.067

NSDHL (UniProt Q15738)
inactive: [1] -0.14 | [2] -0.061 | [3] 0.11 | [4] -0.033 | [5] -0.018 | [6] -0.04 | [7] 0.023 | [8] -0.023 | [9] -0.027 | [10] 0.02

NOL6 (UniProt Q9H6R4)
inactive: [1] 0.117 | [2] 0.076 | [3] 0.325 | [4] 0.015 | [5] 0.068 | [6] 0.088 | [8] 0.303 | [9] 0.099

NSD1 (UniProt Q96L73)
inactive: [1] -0.038 | [2] 0.132 | [3] -0.012 | [5] -0.032 | [6] -0.087 | [7] 0.078 | [8] 0.061 | [10] -0.037

NFS1 (UniProt Q9Y697)
inactive: [1] 0.033 | [2] -0.054 | [3] -0.029 | [4] -0.014 | [5] -0.024 | [6] 0.031 | [7] 0.026 | [8] -0.041 | [9] -0.012 | [10] -0.004

NHLRC2 (UniProt Q8NBF2)
inactive: [1] -0.077 | [2] -0.02 | [3] -0.171 | [4] -0.065 | [5] 0.009 | [6] 0.02 | [7] -0.007 | [8] 0.009 | [9] -0.063 | [10] -0.015

NOL12 (UniProt Q9UGY1)
inactive: [1] 0.151 | [2] 0.159 | [3] 0.281 | [4] 0.197 | [5] -0.017 | [6] -0.104 | [8] 0.228 | [9] 0.375

The list goes on:

NIPBL (UniProt Q6KC79)
inactive: [2] 0.071 | [7] 0.029 | [9] 0.014 | [10] -0.146

NFIC isoform 6 (UniProt P08651)
inactive: [4] -0.395

NOL8 (UniProt Q76FK4)
inactive: [6] -0.156

NEURL4 (UniProt Q96JN8)
inactive: [1] -0.011 | [2] -0.285 | [4] 0.098 | [5] -0.078 | [7] -0.105 | [10] 0.726

NOTCH2 (UniProt Q04721)
inactive: [2] 0.077
